From PubChem BioAssay AID493014 (National Center for Advancing Translational Sciences (NCATS), 2011)
Several values for one entry are separate records, joined by “and”; a condition that tells them apart may be missing. Equal entries are not always repeated. This is one part of the list. The main result of the screen is listed elsewhere. These columns were measured beside it and carry no call. The list favours compounds with an active or inconclusive main result. The note in brackets gives the kind of curve behind each potency; many fits are weak.

Experiment: qHTS Assay to Find Inhibitors of Chronic Active B-Cell Receptor Signaling
Conditions: ABC-DLBCL IkBa-CBG/CBR reporter, luminescence ratio (green luciferase fused to IkBa over red control in TMD8 lymphoma cells), 4 h
Method in brief: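 Compounds up to 46 uM were incubated four hours with TMD8 cells whose green CBG68 luciferase is fused to IkappaBalpha; red CBR luminescence normalised the signal, and concentration-effect curves were fitted to fusion, red and ratio data.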

[1] = measured here: CBR red luminescence, cell number
[2] = measured here: IkBa-CBG green luminescence

| Compound | AC50 [1] | AC50 [2] |
| --- | --- | --- |
| Cc1cc(N2CCN(C)CC2)nc2ccc(NC(=S)N3CCN(c4ccccn4)CC3)cc12 | 17.8 µM [falling, partial curve, poor fit] | – |
| COC(=O)c1cn(Cc2ccccn2)c(=O)c2ccccc12 | 8.91 µM [falling, partial curve, poor fit] | – |
| Cc1cccc(N2C(=O)C(Cc3ccccc3)NC2=S)c1 (configuration not stated) | 8.2 µM [rising, partial curve] | – |
| CC1=NN(c2ccccc2)C(=O)/C1=C\c1cc(C)n(C)c1C | 15.8 µM [falling, single point] | – |
| COc1ccc(OCc2cccc(C(=O)Nn3cc([N+](=O)[O-])cn3)c2)cc1 | 6.51 µM [falling, partial curve, poor fit] | – |
| CCNC(=O)/C(C#N)=C/c1c(N2CCCCCC2)nc2c(C)cccn2c1=O | 5.01 µM [falling, full curve, poor fit] | – |
| CCNC(=S)NN=C1c2ccccc2-c2ccccc21 | 5.62 µM [falling, single point] | 3.55 µM [falling, single point] |
| CC(CCc1ccccc1)NS(=O)(=O)c1ccccc1 (configuration not stated) | 35.5 µM [rising, partial curve, poor fit] | – |
| N#Cc1c2ccc([N+](=O)[O-])cc2[n+]([O-])n1-c1ccccc1 | 6.51 µM [rising, partial curve] | – |
| CCCOc1ccccc1NC(=O)CC1Nc2ccccc2NC1=O (configuration not stated) | 6.51 µM [falling, partial curve, poor fit] | – |
| CCOC(=O)c1ccc(COc2nc3ccccc3nc2-c2ccccc2NC(C)=O)o1 | 7.31 µM [falling, single point] | – |
| CCC(CC)N1CCN(Cc2nc3ccc([N+](=O)[O-])cc3c(=O)n2-c2ccccc2F)CC1 | 12.6 µM [rising, partial curve, poor fit] | – |
| O=C(Nc1ccccc1Cl)Nc1ccccc1Cl | 1.41 µM [falling, full curve] | – |
| CCCCOC(=O)C1CCCC(C(=O)OCCCC)N1 (configuration not stated) | 11.2 µM [rising, partial curve, poor fit] | – |
| CN1/C(=C\C(=O)CSc2nnc(NCc3ccccc3)s2)C(C)(C)c2ccccc21 | 29.1 µM [falling, single point] | – |
| COc1ccc(CCNC(=O)C(CCC(N)=O)NS(=O)(=O)c2ccc(Cl)cc2)cc1OC (configuration not stated) | 3.98 µM [rising, partial curve, poor fit] | – |
| Cc1nc2sc(-c3ccccc3)cc2c(=O)n1/N=C/N(C)C | 3.55 µM [falling, partial curve] | – |
| CCOc1ccc(NC(=O)CN(C)C(=O)c2ccc3[nH]c4c(c3c2)CC(C)CC4)cc1OCC (configuration not stated) | 3.26 µM [rising, partial curve, poor fit] | – |
| CC(C)C(=O)NC(Nc1cc(C(F)(F)F)ccc1Cl)C(Cl)(Cl)Cl (configuration not stated) | 23.1 µM [falling, single point] | – |
| COc1cc(SC)ccc1C(=O)NCCOc1ccc(F)cc1 | 4.61 µM [rising, full curve, poor fit] | – |
| CCOc1ccc(C(=O)c2cc([N+](=O)[O-])ccc2N2CCOCC2)cc1 | – | 0.291 µM [falling, full curve] |

| Compound | AC50 [1] | AC50 [2] |
| --- | --- | --- |
| COc1ccc(-c2noc(N3CCC(C(=O)Nc4ccc(OC)c(OC)c4)CC3)n2)cc1 | 3.16 µM [rising, single point] | – |
| O=C(COC(=O)c1cc(Cl)ccc1O)NNC(=O)c1ccc([N+](=O)[O-])cc1 | 29.1 µM [rising, single point] | – |
| Cc1cc(C)nc(SCC(=O)c2cc3ccccc3oc2=O)n1 | 4.61 µM [falling, full curve, poor fit] | – |
| COc1ccc(CNC2CCN(Cc3ccccc3)CC2)cc1 | 10 µM [falling, partial curve, poor fit] | – |
| O=c1cc(-c2ccccc2)[nH][nH]1 | 9.2 µM [falling, partial curve] | – |
| COC(=O)C1=C(C)N(Cc2ccccc2)C(=NCCc2c[nH]c3ccccc23)N[C@H]1c1cccc(C(F)(F)F)c1 | 10 µM [falling, partial curve] and 29.1 µM [falling, single point] | – |
| C=CCn1c(-c2csc3ccccc23)n[nH]c1=S | – | 20.6 µM [falling, single point] |
| COc1ccccc1NC(=O)COC(=O)c1ccc(N2CCCC2=O)cc1 | 1.84 µM [rising, partial curve, poor fit] | – |
| O=C(COC(=O)CCN1C(=O)/C(=C\C=C\c2ccccc2)SC1=S)Nc1cc(F)ccc1F | 0.1 µM [falling, full curve] | – |
| CC(=O)Nc1nc(C)c(-c2csc(Nc3ccc(O)cc3)n2)s1 | 7.31 µM [falling, partial curve] | 3.26 µM [falling, partial curve, poor fit] |
| CCc1ccc([C@@H]2C[C@H]3CN(Cc4ccccc4OC)C(=O)[C@]34CCCN24)cc1 | 22.4 µM [falling, partial curve, poor fit] | – |
| Cc1nc2c3ccccc3nc(NNC(=O)CCC(=O)NC(C)C)n2n1 | 29.1 µM [falling, single point] | – |
| O=c1ccsn1Cc1ccccc1 | 7.31 µM [falling, single point] | – |
| CC(=O)c1ccc(NC(=O)C2CC(=O)N(Cc3ccccc3)C2)cc1 (configuration not stated) | 29.1 µM [rising, single point] | – |
| O=C1CCc2cc(S(=O)(=O)N3CCC(C(=O)NCCC4=CCCCC4)CC3)ccc2N1 | 29.1 µM [rising, single point] | – |
| O=Cc1cccn1-c1ccc(O)cc1 | 2.24 µM [rising, single point] | – |
| CCC(=O)NCCc1nc2cc(NC(=O)c3ccc(F)cc3)ccc2n1C | 35.5 µM [falling, single point] | – |
| Cc1ccc(C(C)C)c(OCC(=O)NN=C2CCCCCCC2)c1 | 29.1 µM [rising, single point] | 29.1 µM [falling, single point] |
| COc1cc(CN2CCC(CO)(CCOc3ccccc3)CC2)cc(OC)c1 | 35.5 µM [rising, single point] | – |
| COc1ccc(C2Nc3cc(OC)ccc3-n3cccc32)cc1 (configuration not stated) | 0.447 µM [falling, full curve, poor fit] | – |
| CCOC(=O)C1=CN(Cc2cccc(F)c2)S(=O)(=O)NC1c1ccc(F)c(Cl)c1 (configuration not stated) | 14.6 µM [falling, single point] | 16.4 µM [rising, single point] |

| Compound | AC50 [1] | AC50 [2] |
| --- | --- | --- |
| COc1ccc(NC(=O)c2cc(S(=O)(=O)N(Cc3ccccc3)c3ccccc3)ccc2Cl)cn1 | 32.6 µM [falling, single point] | – |
| COCC(C)N=C1NN=C(c2cc(C)n(Cc3ccccc3Cl)c2C)CS1 (configuration not stated) | 35.5 µM [falling, single point] | – |
| CCOC(=O)c1c(C)n(C)c2cc(-c3ccc(F)cc3)c(O)cc12 | 1.16 µM [rising, full curve, poor fit] | – |
| COc1ccccc1Nc1ncc(-c2cccs2)s1 | 0.112 µM [rising, full curve, poor fit] | – |
| CCCNc1ccc(S(=O)(=O)N(CC)CC)cn1 | 20.6 µM [rising, single point] | – |
| OC(Cn1nnc2ccccc21)Cn1c(C(F)(F)F)nc2ccccc21 (configuration not stated) | 5.01 µM [falling, partial curve, poor fit] | – |
| O=C(CC1(O)C(=O)N(Cc2cccc3ccccc23)c2ccccc21)c1cccnc1 (configuration not stated) | 25.9 µM [rising, single point] | 23.1 µM [falling, single point] |
| Cc1ccccc1Cn1ccc(=NCc2ccccc2)cc1 | 20.6 µM [falling, single point] | – |
| Cc1cc(OC(F)F)ccc1NC(=O)Nc1ccc([N+](=O)[O-])cc1 | 29.1 µM [falling, single point] | – |
| Cc1ccc(OCCNC(=O)CCNC(=O)c2ccc(Cl)cc2)cc1 | 29.1 µM [rising, single point] | – |
| CC(C)CC(NC=C1C(=O)OC(C)(C)OC1=O)C(=O)O (configuration not stated) | 2.24 µM [rising, full curve, poor fit] | – |
| COc1ccc(Br)cc1/C=N/Nc1cccc(C(=O)O)c1 | 10.3 µM [falling, partial curve, poor fit] | – |
| O=C(Nc1nc(-c2cccc(Br)c2)cs1)Oc1ccccc1 | 2.82 µM [rising, partial curve, poor fit] | – |
| CC(C)CN(C(=O)Cn1ccccc1=O)C1CCS(=O)(=O)C1 (configuration not stated) | 1.64 µM [rising, partial curve, poor fit] | – |
| COc1cccc(-c2nc3ccccc3c(=O)o2)c1 | 2.06 µM [falling, full curve] | – |
| Oc1ccc(Cl)cc1C1=NNC(c2cccs2)C1 (configuration not stated) | 0.0891 µM [rising, full curve, poor fit] | – |
| N#CC1=C(C2CC2)CC(c2ccccc2)C(C#N)=C1N (configuration not stated) | 2.82 µM [rising, full curve] | – |
| CCN(CC(=O)Nc1ccc(C(=O)Nc2ccc(OC)cc2)cc1)Cc1nc2ccccc2c(=O)[nH]1 | 1 µM [rising, full curve, poor fit] | – |
| CN(Cc1ccccc1)C(=O)c1cc2cc(F)ccc2[nH]1 | 0.794 µM [rising, full curve, poor fit] | – |
| Cc1cc(NC(=O)CCS(=O)(=O)c2nc(-c3ccccc3)cc(C(F)(F)F)n2)no1 | 5.8 µM [falling, full curve, poor fit] | – |

An excerpt from above in order of number of heavy atoms, largest number first:

| Compound | AC50 [1] | AC50 [2] |
| --- | --- | --- |
| COc1ccc(OCc2cccc(C(=O)Nn3cc([N+](=O)[O-])cn3)c2)cc1 | 6.51 µM [falling, partial curve, poor fit] | – |
| COC(=O)c1cn(Cc2ccccn2)c(=O)c2ccccc12 | 8.91 µM [falling, partial curve, poor fit] | – |
| CCCNc1ccc(S(=O)(=O)N(CC)CC)cn1 | 20.6 µM [rising, single point] | – |
